{"source": "PubChem BioAssay AID686938 – Drosophila RNAi Screening Center – 2013", "purpose": "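Fly genes required for calcium entry once internal stores are emptied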 (primary screen)", "system": "Drosophila S2R+ cells", "knock-down reagent": "long dsRNA against Drosophila genes, about 0.25 µg dsRNA per well, roughly 10,000 cells", "duration": "5 days of knock-down before the calcium assay", "treatment": "thapsigargin (SERCA pump blocker) to empty calcium stores; entry signal taken 4 min after adding it", "read-out": "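Per-well fluo-4 fluorescence in two replicates, unnormalised, measured in resting cells and 4 min after store depletion by the SERCA blocker thapsigargin; ratio of the two present in few wells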", "direction": "calcium entry signal: higher = stronger calcium signal after store depletion; resting calcium signal: higher = higher resting calcium signal", "units": "calcium entry signal in fluorescence units; resting calcium signal in fluorescence units", "active means": "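Called when the plate z-score of the entry-to-rest ratio, mean of duplicates, falls below −3; wells with low overall dye signal (Fmax z below −2) or more than five off-targets excluded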", "meaning of the calls": "active = strongly reduced calcium entry; inactive = no strong reduction", "note": "In all, the deposit lists about 23,000 reagents; this is an unselected part of those with a known target gene and a result. In the full data, 75 (0.33%) got an active call. 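Raw plate signals without normalisation; calls rest on plate z-scores that were not deposited; ratio present for only 364 wells.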 A number with no mark means an inactive call. Not stated in the record: the dose of the treatment."}
{"gene": "mtt", "DRSC id": "DRSC05106", "calcium entry signal, replicate 1": 2.34e7, "calcium entry signal, replicate 2": 5.31e7, "resting calcium signal, replicate 1": 1.34e7, "resting calcium signal, replicate 2": 5.04e7}
{"gene": "mtt", "DRSC id": "DRSC05107", "calcium entry signal, replicate 1": 2.11e7, "calcium entry signal, replicate 2": 5.85e7, "resting calcium signal, replicate 1": 1.20e7, "resting calcium signal, replicate 2": 5.56e7}
{"gene": "mtt", "DRSC id": "DRSC06753", "calcium entry signal, replicate 1": 5.49e7, "calcium entry signal, replicate 2": 3.28e7, "resting calcium signal, replicate 1": 2.47e7, "resting calcium signal, replicate 2": 1.58e7}
{"gene": "mtt", "DRSC id": "DRSC07235", "calcium entry signal, replicate 1": 5.58e7, "calcium entry signal, replicate 2": 4.44e7, "resting calcium signal, replicate 1": 2.51e7, "resting calcium signal, replicate 2": 1.81e7}
{"gene": "Nup358", "DRSC id": "DRSC14410", "calcium entry signal, replicate 1": 3.85e7, "calcium entry signal, replicate 2": 2.87e7, "resting calcium signal, replicate 1": 1.87e7, "resting calcium signal, replicate 2": 1.43e7}
{"gene": "CG11898", "DRSC id": "DRSC14432", "calcium entry signal, replicate 1": 2.56e7, "calcium entry signal, replicate 2": 2.45e7, "resting calcium signal, replicate 1": 1.39e7, "resting calcium signal, replicate 2": 1.33e7}
{"gene": "CG33282", "DRSC id": "DRSC00422", "calcium entry signal, replicate 1": 2.91e7, "calcium entry signal, replicate 2": 2.75e7, "resting calcium signal, replicate 1": 1.46e7, "resting calcium signal, replicate 2": 1.34e7}
{"gene": "Pp2C1", "DRSC id": "DRSC18699", "calcium entry signal, replicate 1": 3.14e7, "calcium entry signal, replicate 2": 2.61e7, "resting calcium signal, replicate 1": 1.52e7, "resting calcium signal, replicate 2": 1.36e7}
{"gene": "Pp2C1", "DRSC id": "DRSC23287", "calcium entry signal, replicate 1": 3.83e7, "calcium entry signal, replicate 2": 4.67e7, "resting calcium signal, replicate 1": 1.93e7, "resting calcium signal, replicate 2": 2.07e7}
{"gene": "Gr89a", "DRSC id": "DRSC15023", "calcium entry signal, replicate 1": 3.06e7, "calcium entry signal, replicate 2": 5.20e7, "resting calcium signal, replicate 1": 1.70e7, "resting calcium signal, replicate 2": 4.94e7}
{"gene": "Gr36b", "DRSC id": "DRSC21637", "calcium entry signal, replicate 1": 3.27e7, "calcium entry signal, replicate 2": 2.77e7, "resting calcium signal, replicate 1": 1.77e7, "resting calcium signal, replicate 2": 1.42e7}
{"gene": "mAChR-C", "DRSC id": "DRSC17890", "calcium entry signal, replicate 1": 3.10e7, "calcium entry signal, replicate 2": 4.27e7, "resting calcium signal, replicate 1": 1.57e7, "resting calcium signal, replicate 2": 1.92e7}
{"gene": "CG31195", "DRSC id": "DRSC13440", "calcium entry signal, replicate 1": 4.58e7, "calcium entry signal, replicate 2": 2.99e7, "resting calcium signal, replicate 1": 2.27e7, "resting calcium signal, replicate 2": 1.50e7}
{"gene": "CG10973", "DRSC id": "DRSC09813", "calcium entry signal, replicate 1": 5.09e7, "calcium entry signal, replicate 2": 3.96e7, "resting calcium signal, replicate 1": 3.24e7, "resting calcium signal, replicate 2": 1.69e7}
{"gene": "CG1774", "DRSC id": "DRSC15258", "calcium entry signal, replicate 1": 3.69e7, "calcium entry signal, replicate 2": 3.84e7, "resting calcium signal, replicate 1": 1.61e7, "resting calcium signal, replicate 2": 1.90e7}
{"gene": "CG5235", "DRSC id": "DRSC10494", "calcium entry signal, replicate 1": 4.53e7, "calcium entry signal, replicate 2": 6.84e7, "resting calcium signal, replicate 1": 2.12e7, "resting calcium signal, replicate 2": 2.63e7}
{"gene": "CG15594", "DRSC id": "DRSC12280", "calcium entry signal, replicate 1": 3.91e7, "calcium entry signal, replicate 2": 2.96e7, "resting calcium signal, replicate 1": 1.87e7, "resting calcium signal, replicate 2": 1.32e7}
{"gene": "CG15024", "DRSC id": "DRSC08478", "calcium entry signal, replicate 1": 2.54e7, "calcium entry signal, replicate 2": 4.61e7, "resting calcium signal, replicate 1": 1.27e7, "resting calcium signal, replicate 2": 1.98e7}
{"gene": "yellow-f2", "DRSC id": "DRSC16372", "calcium entry signal, replicate 1": 4.27e7, "calcium entry signal, replicate 2": 5.18e7, "resting calcium signal, replicate 1": 1.59e7, "resting calcium signal, replicate 2": 2.15e7}
{"gene": "tau", "DRSC id": "DRSC14569", "calcium entry signal, replicate 1": 2.71e7, "calcium entry signal, replicate 2": 4.00e7, "resting calcium signal, replicate 1": 1.48e7, "resting calcium signal, replicate 2": 1.69e7}
{"gene": "tau", "DRSC id": "DRSC23046", "calcium entry signal, replicate 1": 3.58e7, "calcium entry signal, replicate 2": 3.66e7, "resting calcium signal, replicate 1": 1.90e7, "resting calcium signal, replicate 2": 1.76e7}
{"gene": "CG34176", "DRSC id": "DRSC00435", "calcium entry signal, replicate 1": 3.67e7, "calcium entry signal, replicate 2": 3.58e7, "resting calcium signal, replicate 1": 1.91e7, "resting calcium signal, replicate 2": 1.71e7}
{"gene": "AANATL2", "DRSC id": "DRSC03227", "calcium entry signal, replicate 1": 3.91e7, "calcium entry signal, replicate 2": 4.06e7, "resting calcium signal, replicate 1": 1.91e7, "resting calcium signal, replicate 2": 1.97e7}
{"gene": "CG40378 (retired record)", "DRSC id": "DRSC20958", "calcium entry signal, replicate 1": 2.82e7, "calcium entry signal, replicate 2": 3.48e7, "resting calcium signal, replicate 1": 1.39e7, "resting calcium signal, replicate 2": 1.56e7}
{"gene": "CG40378 (retired record)", "DRSC id": "DRSC22174", "calcium entry signal, replicate 1": 3.47e7, "calcium entry signal, replicate 2": 2.82e7, "resting calcium signal, replicate 1": 2.13e7, "resting calcium signal, replicate 2": 1.49e7}
{"gene": "vlc", "DRSC id": "DRSC04922", "calcium entry signal, replicate 1": 3.86e7, "calcium entry signal, replicate 2": 4.75e7, "resting calcium signal, replicate 1": 2.03e7, "resting calcium signal, replicate 2": 2.00e7}
{"gene": "CG17764", "DRSC id": "DRSC18135", "calcium entry signal, replicate 1": 2.26e7, "calcium entry signal, replicate 2": 3.98e7, "resting calcium signal, replicate 1": 1.57e7, "resting calcium signal, replicate 2": 1.80e7}
{"gene": "CG17764", "DRSC id": "DRSC23055", "calcium entry signal, replicate 1": 4.18e7, "calcium entry signal, replicate 2": 3.13e7, "resting calcium signal, replicate 1": 2.46e7, "resting calcium signal, replicate 2": 1.40e7}

Ordered by “resting calcium signal, replicate 1” (low to high): 2 of the entries above
{"gene": "CG40378 (retired record)", "DRSC id": "DRSC20958", "calcium entry signal, replicate 1": 2.82e7, "calcium entry signal, replicate 2": 3.48e7, "resting calcium signal, replicate 1": 1.39e7, "resting calcium signal, replicate 2": 1.56e7}
{"gene": "AANATL2", "DRSC id": "DRSC03227", "calcium entry signal, replicate 1": 3.91e7, "calcium entry signal, replicate 2": 4.06e7, "resting calcium signal, replicate 1": 1.91e7, "resting calcium signal, replicate 2": 1.97e7}
